PubChem BioAssay AID686938 – Drosophila RNAi Screening Center, 2013
The screen tested about 23,000 reagents; below is an unselected part of those with a known target gene and a result. Of all reagents, 75 (0.33%) got an active call. 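Raw plate signals without normalisation; calls rest on plate z-scores that were not deposited; ratio present for only 364 wells.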 No sequences are given here. The record does not give: the dose of the treatment.

Screen: 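Looking for CRAC channel components and the factors controlling them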 (primary screen)
Cells: Drosophila S2R+ cells
Reagents: long dsRNA against Drosophila genes, about 0.25 µg dsRNA per well, roughly 10,000 cells
Timing: 5 days of knock-down before the calcium assay
Conditions: thapsigargin (SERCA pump blocker) to empty calcium stores; entry signal taken 4 min after adding it
Detection: 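Duplicate raw fluo-4 intensities per well from a plate reader, at rest and four minutes after thapsigargin emptied calcium stores; entry-to-rest ratio filled for only some wells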
Scale: calcium entry signal: higher = stronger calcium signal after store depletion; resting calcium signal: higher = higher resting calcium signal
Hit rule: 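Called when the plate z-score of the entry-to-rest ratio, mean of duplicates, falls below −3; wells with low overall dye signal (Fmax z below −2) or more than five off-targets excluded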
Meaning of the calls: active = strongly reduced calcium entry; inactive = no strong reduction

predicted target,dsRNA,"calcium entry signal, replicate 1 (fluorescence units)","calcium entry signal, replicate 2 (fluorescence units)","resting calcium signal, replicate 1 (fluorescence units)","resting calcium signal, replicate 2 (fluorescence units)",outcome
Toll-9,DRSC11776,2.58e7,4.81e7,1.33e7,1.86e7,inactive
CG9257,DRSC03173,4.58e7,4.61e7,2.19e7,2.09e7,inactive
tHMG1,DRSC16181,3.34e7,3.80e7,5.69e7,1.75e7,inactive
MED7,DRSC16059,2.27e7,2.43e7,1.35e7,1.40e7,inactive
Letm1,DRSC04476,2.92e7,,1.72e7,,inactive
CG8343,DRSC04905,4.26e7,,2.11e7,,inactive
Or94a,DRSC16772,5.49e7,5.68e7,2.39e7,2.57e7,inactive
CG8188,DRSC20090,2.99e7,3.28e7,1.60e7,1.66e7,inactive
CG32447,DRSC11732,3.34e7,3.98e7,1.60e7,2.61e7,inactive
CG32447,DRSC11805,2.89e7,4.23e7,1.44e7,2.03e7,inactive
CG14294,DRSC14774,2.36e7,3.36e7,3.25e7,1.41e7,inactive
trh,DRSC08355,4.05e7,4.39e7,2.20e7,2.06e7,inactive
trh,DRSC08739,4.21e7,4.36e7,2.15e7,2.04e7,inactive

Limited to “resting calcium signal, replicate 1 (fluorescence units)”, for 3 of the entries above:
tHMG1 [DRSC16181]: 5.69e7
MED7 [DRSC16059]: 1.35e7
Letm1 [DRSC04476]: 1.72e7

The list goes on.
predicted target,dsRNA,"calcium entry signal, replicate 1 (fluorescence units)","calcium entry signal, replicate 2 (fluorescence units)","resting calcium signal, replicate 1 (fluorescence units)","resting calcium signal, replicate 2 (fluorescence units)",outcome
witty,DRSC02378,3.56e7,6.23e7,1.88e7,2.65e7,inactive
witty,DRSC21650,3.91e7,4.15e7,2.25e7,1.87e7,inactive
CG10214,DRSC14213,4.76e7,3.73e7,2.21e7,1.63e7,inactive
tho2,DRSC00646,2.89e7,,1.68e7,,inactive
CG30060,DRSC05419,3.15e7,4.36e7,1.52e7,1.88e7,inactive
CG5478,DRSC15814,3.94e7,3.26e7,1.92e7,6.15e7,inactive
CG31954,DRSC00580,4.26e7,,2.58e7,,inactive
CG43095,DRSC13573,5.00e7,3.13e7,2.22e7,1.67e7,inactive
Or19a,DRSC20684,4.76e7,5.16e7,2.53e7,2.32e7,inactive
Fatp (retired record),DRSC03054,4.37e7,,2.19e7,,inactive
yellow-g,DRSC08575,3.07e7,4.91e7,1.54e7,2.07e7,inactive
